Source: US20250145733A1 (University of California, published 2025)
Substitutions are numbered along the chain they refer to. These are yes or no findings as the source states them, for the method shown. Some entries that bind do so weakly or less than the wild type. Blank lines part the entries; values can stand above or below the binder they belong to.

Sequences of proteins named here, by UniProt entry; tags and fusion partners are left off. Residues count along the entry.
UniProt P10696, residues 20-503: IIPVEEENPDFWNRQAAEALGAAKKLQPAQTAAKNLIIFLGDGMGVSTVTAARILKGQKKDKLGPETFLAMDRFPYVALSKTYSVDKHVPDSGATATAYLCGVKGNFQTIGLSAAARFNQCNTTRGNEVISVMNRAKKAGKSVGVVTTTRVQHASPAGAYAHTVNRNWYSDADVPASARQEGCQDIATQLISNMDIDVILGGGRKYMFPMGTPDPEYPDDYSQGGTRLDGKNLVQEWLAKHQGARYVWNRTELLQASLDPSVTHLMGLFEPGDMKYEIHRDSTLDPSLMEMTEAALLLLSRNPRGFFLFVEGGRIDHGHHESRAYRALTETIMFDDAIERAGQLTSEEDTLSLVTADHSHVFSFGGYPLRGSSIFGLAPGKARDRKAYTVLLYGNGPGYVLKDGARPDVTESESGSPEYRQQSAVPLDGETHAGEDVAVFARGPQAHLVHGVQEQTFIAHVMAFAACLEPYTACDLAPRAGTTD

Molecular target: human ALPPL2 on tumor cells (M28, SKOV3, AsPC1) (human) (UniProt P10696)
Experiment: flow cytometry on living M28 cells, 1 h at RT

- binding: binds
B1: FYIA_germ Fab (Fab, V domains shown)
VH: EVQLVESGGGLVQPGGSLRLSCAASGFTFSSYAMHWVRQAPGKGLEWVAVISYDGSNKYYADSVKGRFTISRDNSKNTLYLQMNSLRAEDTAVYYCAKEGDSSRWSYDLWGRGTLVTVSS
VL: QSALTQPASVSGSPGQSITISCTGTSSDVGGYNYVSWYQQHPGKAPKLMIYDVTNRPSGVSNRFSGSKSGNTASLTISGLQAEDEADYYCSSYTIASTLVVFGGGTKLTVL
notes: Tested as monovalent Fab

- binding: binds
B2: FYIA_germopt Fab (Fab, V domains shown)
VH: B1 VH with S31A, D54E, S56Y, K58A, S102Y, S106A, L109Y
VL: B1 VL with R56Y, I95V, S97T
notes: Tested as monovalent Fab; also called SYLY
